Results: patent publication US8940799B2, “Adjusting drug loading in polymeric materials” (Medtronic Xomed, Inc., priority 2010, dated 2015)
At least one compound was matched to its structure with a doubt left.

Settings: shunt catheter of 50/50 blend

SMILES: CO[C@H]1/C=C/O[C@@]2(C)Oc3c(C)c(O)c4c(O)c(c(/C=N/N5CCN(C)CC5)c(O)c4c3C2=O)NC(=O)/C(C)=C\C=C\[C@H](C)[C@H](O)[C@@H](C)[C@@H](O)[C@@H](C)[C@H](OC(C)=O)[C@@H]1C [rifampicin]
- drug content of catheter after sterilization (after steam sterilization): ~0.054%
- drug content of catheter before steam sterilization (soaked 45-60 minutes in chloroform solution, before steam sterilization): 0.15-0.17 % by weight
